For the test, the target named is β-catenin (human) (UniProt P35222). The test is described as follows: co-IP; lysates of HEK293T cells co-expressing CDH20 and β-catenin; anti-β-catenin antibody overnight at 4°C, protein A/G-agarose beads 3 h at 4°C, three washes with cell lysis buffer, Western blot. On the technique in general: A western blot detects proteins with antibodies after separation by electrophoresis.

The chains behind the UniProt entries cited, without tags or fusion partners.
UniProt P35222: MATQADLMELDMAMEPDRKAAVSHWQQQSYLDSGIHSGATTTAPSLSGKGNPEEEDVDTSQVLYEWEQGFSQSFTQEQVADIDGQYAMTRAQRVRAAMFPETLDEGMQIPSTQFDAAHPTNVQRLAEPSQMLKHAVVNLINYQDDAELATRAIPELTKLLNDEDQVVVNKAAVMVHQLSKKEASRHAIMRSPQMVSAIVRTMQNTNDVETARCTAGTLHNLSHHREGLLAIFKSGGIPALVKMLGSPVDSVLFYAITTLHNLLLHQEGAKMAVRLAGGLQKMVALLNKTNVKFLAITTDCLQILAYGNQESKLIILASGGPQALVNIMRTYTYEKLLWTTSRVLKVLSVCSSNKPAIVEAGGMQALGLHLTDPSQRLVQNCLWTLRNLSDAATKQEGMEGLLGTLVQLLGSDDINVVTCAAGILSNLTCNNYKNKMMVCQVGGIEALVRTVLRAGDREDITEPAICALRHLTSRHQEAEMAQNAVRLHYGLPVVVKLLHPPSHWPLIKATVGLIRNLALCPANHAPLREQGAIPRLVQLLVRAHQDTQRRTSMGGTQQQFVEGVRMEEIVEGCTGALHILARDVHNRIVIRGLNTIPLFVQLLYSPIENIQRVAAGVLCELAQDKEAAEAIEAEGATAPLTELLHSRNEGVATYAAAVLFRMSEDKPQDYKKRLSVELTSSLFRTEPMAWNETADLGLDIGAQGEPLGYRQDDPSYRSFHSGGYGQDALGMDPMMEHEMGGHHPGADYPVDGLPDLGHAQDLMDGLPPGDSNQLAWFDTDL

These are yes or no findings as the source states them, for the method shown. In cells and extracts the contact can be indirect. Some entries that bind do so weakly or less than the wild type.

B1: Cadherin 20 (protein, UniProt Q9HBT6 60-801)
chain: SWVWNQFFVLEEYTGTDPLYVGKLHSDMDRGDGSIKYILSGEGAGIVFTIDDTTGDIHAIQRLDREERAQYTLRAQALDRRTGRPMEPESEFIIKIQDINDNEPKFLDGPYVATVPEMSPVGTSVIQVTATDADDPTYGNSARVVYSILQGQPYFSVDSKTGVIRTALMNMDREAKEYYEVIIQAKDMGGQLGGLAGTTTVNITLSDVNDNPPRFPQKHYQMSVLESAPISSTVGRVFAKDLDEGINAEMKYTIVDGDGADAFDISTDPNFQVGIITVKKPLSFESKKSYTLKVEGANPHLEMRFLNLGPFQDTTTVHISVEDVDEPPVFEPGFYFVEVPEDVAIGTTIQIISAKDPDVTNNSIRYSIDRSSDPGRFFYVDITTGALMTARPLDREEFSWHNITVLAMEMNNPSQVGSVPVTIKVLDVNDNAPEFPRFYEAFVCENAKAGQLIQTVSAVDQDDPRNGQHFYYSLAPEAANNPNFTIRDNQDNTARILTRRSGFRQQEQSVFHLPILIADSGQPVLSSTGTLTIQVCSCDDDGHVMSCSPEAYMLPVSLSRGALIAILACIFVLLVLVLLILSMRRHRKQPYIIDDEENIHENIVRYDDEGGGEEDTEAFDIAAMWNPREAQAGAAPKTRQDMLPEIESLSRYVPQTCAVNSTVHSYVLAKLYEADMDLWAPPFDSLQTYMFEGDGSVAGSLSSLQSATSDSEQSFDFLTDWGPRFRKLAELYGASEGPAPLW
For B1, the binding entry was “binds”.

For the origin of these results see article PMC6962355.
